The list shows a part of the results.
Compound: CC1Cc2ccccc2N1C(=O)C1CCCN(C1)C(=O)CCl (mixture of isomers) [TRIM25 ligand 11 (diastereomer mixture)]
Experiment: probe-labelled cysteine peptide fold change vs DMSO (competition) (log2 fold change); higher = less target engagement (more negative = stronger competition)
Details: THP-1, incubation time: 4 h
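Also: competitive chemoproteomic profiling in live THP-1 cells with an iodoacetamide desthiobiotin (IA-DTB) probe, comparing probe-labelled peptide intensities in compound-treated cells against DMSO-treated controls.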

By UniProt entry, the sequences of proteins in these tests, tags left out. Where a name states a change or a piece, a line headed by the entry shows the natural chain unless it says otherwise.
UniProt Q8IZH2: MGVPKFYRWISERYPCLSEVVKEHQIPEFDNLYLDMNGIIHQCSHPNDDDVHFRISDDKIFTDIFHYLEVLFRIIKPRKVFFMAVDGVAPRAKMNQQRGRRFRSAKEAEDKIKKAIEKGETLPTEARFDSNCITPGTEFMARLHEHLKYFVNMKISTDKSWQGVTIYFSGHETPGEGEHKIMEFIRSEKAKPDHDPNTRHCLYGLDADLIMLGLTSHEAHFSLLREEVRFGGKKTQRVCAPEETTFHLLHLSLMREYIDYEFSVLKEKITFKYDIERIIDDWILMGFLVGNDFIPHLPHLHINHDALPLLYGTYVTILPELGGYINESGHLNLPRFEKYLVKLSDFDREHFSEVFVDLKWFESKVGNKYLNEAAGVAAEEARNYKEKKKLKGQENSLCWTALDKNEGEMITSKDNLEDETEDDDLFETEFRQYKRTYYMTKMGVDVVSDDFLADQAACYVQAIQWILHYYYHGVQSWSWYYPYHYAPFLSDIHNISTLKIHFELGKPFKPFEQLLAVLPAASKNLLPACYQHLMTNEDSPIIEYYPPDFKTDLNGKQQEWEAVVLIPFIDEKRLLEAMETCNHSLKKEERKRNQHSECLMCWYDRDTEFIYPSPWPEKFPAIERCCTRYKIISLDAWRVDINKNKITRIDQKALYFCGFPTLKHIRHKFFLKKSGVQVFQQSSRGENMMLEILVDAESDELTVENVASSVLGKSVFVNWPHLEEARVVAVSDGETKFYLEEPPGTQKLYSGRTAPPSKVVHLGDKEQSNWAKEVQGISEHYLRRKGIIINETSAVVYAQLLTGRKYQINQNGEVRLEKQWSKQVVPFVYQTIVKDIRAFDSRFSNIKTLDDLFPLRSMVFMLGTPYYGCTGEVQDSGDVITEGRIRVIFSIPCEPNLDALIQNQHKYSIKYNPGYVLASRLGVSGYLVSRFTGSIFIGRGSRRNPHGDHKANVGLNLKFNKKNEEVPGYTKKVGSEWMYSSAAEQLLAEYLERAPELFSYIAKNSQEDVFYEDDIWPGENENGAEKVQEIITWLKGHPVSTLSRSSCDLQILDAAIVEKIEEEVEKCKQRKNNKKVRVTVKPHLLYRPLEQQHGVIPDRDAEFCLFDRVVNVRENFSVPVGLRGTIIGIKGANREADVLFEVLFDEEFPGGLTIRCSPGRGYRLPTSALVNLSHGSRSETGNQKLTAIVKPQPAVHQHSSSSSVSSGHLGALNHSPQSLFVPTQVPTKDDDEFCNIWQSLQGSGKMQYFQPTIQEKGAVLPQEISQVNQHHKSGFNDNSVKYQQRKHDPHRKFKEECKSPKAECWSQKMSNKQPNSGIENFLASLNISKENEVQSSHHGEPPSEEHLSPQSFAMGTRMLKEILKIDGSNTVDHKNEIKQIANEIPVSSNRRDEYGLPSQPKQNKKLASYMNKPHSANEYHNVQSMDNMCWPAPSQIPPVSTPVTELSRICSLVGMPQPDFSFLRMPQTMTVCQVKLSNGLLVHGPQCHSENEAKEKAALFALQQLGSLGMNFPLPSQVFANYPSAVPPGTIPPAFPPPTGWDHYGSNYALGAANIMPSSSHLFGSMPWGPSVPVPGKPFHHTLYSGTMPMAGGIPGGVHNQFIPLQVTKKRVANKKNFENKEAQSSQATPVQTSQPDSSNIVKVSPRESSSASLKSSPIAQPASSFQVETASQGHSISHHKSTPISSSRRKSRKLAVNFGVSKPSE
UniProt Q8IWR0: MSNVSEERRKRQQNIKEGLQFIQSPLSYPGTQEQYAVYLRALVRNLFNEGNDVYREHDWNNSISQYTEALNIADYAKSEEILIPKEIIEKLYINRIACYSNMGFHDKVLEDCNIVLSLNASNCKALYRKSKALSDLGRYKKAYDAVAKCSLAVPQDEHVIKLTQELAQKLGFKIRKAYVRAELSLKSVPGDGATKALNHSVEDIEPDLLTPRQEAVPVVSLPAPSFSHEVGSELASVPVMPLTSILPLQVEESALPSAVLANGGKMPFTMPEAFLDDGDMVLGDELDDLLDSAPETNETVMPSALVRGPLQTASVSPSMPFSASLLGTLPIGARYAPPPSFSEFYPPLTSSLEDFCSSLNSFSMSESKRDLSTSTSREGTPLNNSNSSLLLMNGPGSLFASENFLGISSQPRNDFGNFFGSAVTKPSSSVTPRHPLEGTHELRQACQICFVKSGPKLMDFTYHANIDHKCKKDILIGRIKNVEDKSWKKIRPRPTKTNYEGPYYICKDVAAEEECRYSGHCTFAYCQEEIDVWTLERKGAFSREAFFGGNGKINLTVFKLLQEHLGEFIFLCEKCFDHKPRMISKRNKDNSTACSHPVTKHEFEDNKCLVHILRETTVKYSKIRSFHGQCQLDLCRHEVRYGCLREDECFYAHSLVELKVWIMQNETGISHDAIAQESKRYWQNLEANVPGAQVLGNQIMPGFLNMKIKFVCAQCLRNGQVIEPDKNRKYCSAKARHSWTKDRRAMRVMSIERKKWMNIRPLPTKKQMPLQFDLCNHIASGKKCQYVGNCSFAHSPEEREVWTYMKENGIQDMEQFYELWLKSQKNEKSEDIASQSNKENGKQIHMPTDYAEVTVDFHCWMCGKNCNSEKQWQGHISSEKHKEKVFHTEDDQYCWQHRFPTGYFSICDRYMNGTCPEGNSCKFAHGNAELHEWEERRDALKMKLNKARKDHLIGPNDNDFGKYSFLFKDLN
UniProt Q9Y2K1: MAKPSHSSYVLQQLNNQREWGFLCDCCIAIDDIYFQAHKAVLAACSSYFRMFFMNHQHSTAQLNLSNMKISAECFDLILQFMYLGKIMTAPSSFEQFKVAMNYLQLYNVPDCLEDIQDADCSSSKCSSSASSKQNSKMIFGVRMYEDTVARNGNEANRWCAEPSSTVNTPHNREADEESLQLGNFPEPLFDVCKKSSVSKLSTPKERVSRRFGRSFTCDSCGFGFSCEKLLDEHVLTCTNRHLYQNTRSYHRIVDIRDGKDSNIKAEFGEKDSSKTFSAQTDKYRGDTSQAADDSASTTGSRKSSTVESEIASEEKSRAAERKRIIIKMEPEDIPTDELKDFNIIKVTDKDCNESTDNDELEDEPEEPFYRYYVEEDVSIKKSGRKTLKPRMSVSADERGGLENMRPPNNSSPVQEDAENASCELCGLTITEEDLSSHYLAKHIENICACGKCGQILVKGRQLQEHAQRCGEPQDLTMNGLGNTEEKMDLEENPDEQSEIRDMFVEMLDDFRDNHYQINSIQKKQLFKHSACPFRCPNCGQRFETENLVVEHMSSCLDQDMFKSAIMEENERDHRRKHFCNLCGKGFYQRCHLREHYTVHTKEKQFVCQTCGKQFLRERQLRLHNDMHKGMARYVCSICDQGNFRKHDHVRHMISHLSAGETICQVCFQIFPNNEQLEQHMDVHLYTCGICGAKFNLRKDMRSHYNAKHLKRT
UniProt Q8IVQ6: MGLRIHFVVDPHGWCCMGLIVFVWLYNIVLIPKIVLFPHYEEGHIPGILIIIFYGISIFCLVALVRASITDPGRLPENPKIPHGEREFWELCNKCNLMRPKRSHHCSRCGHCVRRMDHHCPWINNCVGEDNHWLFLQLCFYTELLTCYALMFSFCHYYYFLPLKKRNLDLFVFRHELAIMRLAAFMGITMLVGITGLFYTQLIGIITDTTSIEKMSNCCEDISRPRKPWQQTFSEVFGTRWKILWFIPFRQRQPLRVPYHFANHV
UniProt Q9UIA9: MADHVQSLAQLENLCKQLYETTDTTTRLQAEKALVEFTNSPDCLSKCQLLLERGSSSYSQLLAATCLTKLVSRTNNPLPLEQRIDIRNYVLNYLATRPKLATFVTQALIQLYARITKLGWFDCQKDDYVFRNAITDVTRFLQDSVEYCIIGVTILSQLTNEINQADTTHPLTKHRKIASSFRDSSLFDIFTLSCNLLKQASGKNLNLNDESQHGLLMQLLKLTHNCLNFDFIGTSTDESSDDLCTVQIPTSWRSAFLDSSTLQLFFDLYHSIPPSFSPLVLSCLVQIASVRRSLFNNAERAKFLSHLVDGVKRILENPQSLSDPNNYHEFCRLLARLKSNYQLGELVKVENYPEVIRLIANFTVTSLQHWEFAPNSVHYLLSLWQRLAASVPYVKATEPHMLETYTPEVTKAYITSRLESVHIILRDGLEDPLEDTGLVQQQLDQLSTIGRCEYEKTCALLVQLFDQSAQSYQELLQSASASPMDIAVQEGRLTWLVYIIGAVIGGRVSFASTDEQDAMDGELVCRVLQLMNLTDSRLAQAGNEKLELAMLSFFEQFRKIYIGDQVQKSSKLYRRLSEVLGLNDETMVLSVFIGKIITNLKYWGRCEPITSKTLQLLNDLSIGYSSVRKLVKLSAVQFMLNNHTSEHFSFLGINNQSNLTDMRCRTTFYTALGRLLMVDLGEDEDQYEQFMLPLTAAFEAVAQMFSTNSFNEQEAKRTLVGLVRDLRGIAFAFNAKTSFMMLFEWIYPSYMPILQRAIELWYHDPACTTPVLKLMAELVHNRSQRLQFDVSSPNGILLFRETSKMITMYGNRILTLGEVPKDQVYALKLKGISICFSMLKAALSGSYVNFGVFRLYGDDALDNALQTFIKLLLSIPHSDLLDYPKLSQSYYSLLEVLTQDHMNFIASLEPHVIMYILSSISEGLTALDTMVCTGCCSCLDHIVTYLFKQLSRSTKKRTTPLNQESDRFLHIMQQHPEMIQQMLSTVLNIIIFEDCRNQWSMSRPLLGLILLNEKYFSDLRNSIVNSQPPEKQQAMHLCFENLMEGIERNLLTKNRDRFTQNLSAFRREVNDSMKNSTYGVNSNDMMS
UniProt Q96H79: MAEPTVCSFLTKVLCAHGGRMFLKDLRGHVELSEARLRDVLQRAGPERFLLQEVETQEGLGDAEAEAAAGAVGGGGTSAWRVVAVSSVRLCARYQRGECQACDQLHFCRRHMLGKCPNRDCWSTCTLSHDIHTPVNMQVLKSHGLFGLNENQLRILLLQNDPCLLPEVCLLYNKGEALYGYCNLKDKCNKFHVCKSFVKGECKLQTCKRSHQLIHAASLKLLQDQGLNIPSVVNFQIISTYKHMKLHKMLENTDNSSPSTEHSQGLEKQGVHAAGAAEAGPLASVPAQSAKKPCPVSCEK
UniProt P62258: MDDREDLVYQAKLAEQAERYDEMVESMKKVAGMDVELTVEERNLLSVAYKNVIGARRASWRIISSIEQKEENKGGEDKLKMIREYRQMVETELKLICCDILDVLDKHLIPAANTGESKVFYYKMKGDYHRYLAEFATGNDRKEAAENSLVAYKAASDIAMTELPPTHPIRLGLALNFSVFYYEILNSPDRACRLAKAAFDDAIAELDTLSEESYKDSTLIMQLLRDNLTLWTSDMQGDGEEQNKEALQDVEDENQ
UniProt Q7Z2W4: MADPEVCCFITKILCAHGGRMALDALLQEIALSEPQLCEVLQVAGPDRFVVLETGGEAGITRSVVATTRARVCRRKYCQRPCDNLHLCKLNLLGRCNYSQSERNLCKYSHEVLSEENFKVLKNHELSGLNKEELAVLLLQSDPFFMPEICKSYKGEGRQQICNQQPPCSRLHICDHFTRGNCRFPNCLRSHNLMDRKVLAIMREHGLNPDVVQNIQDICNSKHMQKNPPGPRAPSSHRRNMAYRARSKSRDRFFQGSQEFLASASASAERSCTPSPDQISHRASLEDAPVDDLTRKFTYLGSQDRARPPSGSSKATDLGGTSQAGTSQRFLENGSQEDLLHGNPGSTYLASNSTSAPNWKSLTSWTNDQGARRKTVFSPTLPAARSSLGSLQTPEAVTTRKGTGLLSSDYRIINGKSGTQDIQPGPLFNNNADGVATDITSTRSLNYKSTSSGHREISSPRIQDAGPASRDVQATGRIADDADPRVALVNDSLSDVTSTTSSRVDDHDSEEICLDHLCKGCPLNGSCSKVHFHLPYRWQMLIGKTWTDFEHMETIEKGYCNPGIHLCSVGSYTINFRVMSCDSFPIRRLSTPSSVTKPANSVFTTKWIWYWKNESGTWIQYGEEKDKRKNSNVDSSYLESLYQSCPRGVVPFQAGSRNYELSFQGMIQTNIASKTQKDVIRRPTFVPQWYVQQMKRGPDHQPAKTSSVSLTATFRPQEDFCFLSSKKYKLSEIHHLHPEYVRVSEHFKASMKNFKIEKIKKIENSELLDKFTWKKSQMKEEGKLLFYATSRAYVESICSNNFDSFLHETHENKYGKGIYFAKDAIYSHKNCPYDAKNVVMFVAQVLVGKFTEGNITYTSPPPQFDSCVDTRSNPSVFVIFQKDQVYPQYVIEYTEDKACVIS
UniProt P61981: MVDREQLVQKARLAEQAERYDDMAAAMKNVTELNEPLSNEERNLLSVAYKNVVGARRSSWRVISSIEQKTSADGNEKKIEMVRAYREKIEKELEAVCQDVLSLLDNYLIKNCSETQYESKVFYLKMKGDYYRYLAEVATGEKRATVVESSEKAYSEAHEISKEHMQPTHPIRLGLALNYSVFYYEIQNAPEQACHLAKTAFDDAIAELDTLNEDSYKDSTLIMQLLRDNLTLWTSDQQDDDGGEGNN

In the case of “XRN1_Q8IZH2_16_YPCLSEVVK (UniProt Q8IZH2)”, the “probe-labelled cysteine peptide fold change” value (10 µM) was 0.0639 and the “probe-labelled cysteine peptide fold change” value (50 µM) was 0.0149.

In the case of “YWHAQ_P27348_94_SICTTVLELLDK (UniProt P27348)”, the “probe-labelled cysteine peptide fold change” value (10 µM) was -0.0784 and the “probe-labelled cysteine peptide fold change” value (50 µM) was 0.132.

In the case of “ZC3H7A_Q8IWR0_572_LLQEHLGEFIFLCEK (UniProt Q8IWR0)”, the “probe-labelled cysteine peptide fold change” value (10 µM) was 0.0463 and the “probe-labelled cysteine peptide fold change” value (50 µM) was 0.0436.

“ZBTB1_Q9Y2K1_532_HSACPFR (UniProt Q9Y2K1)” was tested, and the “probe-labelled cysteine peptide fold change” value (10 µM) was -0.06 and the “probe-labelled cysteine peptide fold change” value (50 µM) was 0.0188.

With “ZCCHC3_Q9NUD5_299_CEIELR (UniProt Q9NUD5)” the “probe-labelled cysteine peptide fold change” value (10 µM) was 0.111 and the “probe-labelled cysteine peptide fold change” value (50 µM) was 0.331.

With “ZBTB43_O43298_450_HVTSCTK (UniProt O43298)” the “probe-labelled cysteine peptide fold change” value (10 µM) was 0.0113 and the “probe-labelled cysteine peptide fold change” value (50 µM) was -0.159.

With “XRCC5_P13010_493_LFQCLLHR (UniProt P13010)” the “probe-labelled cysteine peptide fold change” value (10 µM) was -0.143 and the “probe-labelled cysteine peptide fold change” value (50 µM) was 0.00588.

With “ZC3H12D_A2A288_266_CTYGIK (UniProt A2A288)” the “probe-labelled cysteine peptide fold change” value (10 µM) was 0.0719 and the “probe-labelled cysteine peptide fold change” value (50 µM) was 0.0733.

In the case of “ZC3H7A_Q8IWR0_894_VFHTEDDQYCWQHR (UniProt Q8IWR0)”, the “probe-labelled cysteine peptide fold change” value (10 µM) was 0.0296 and the “probe-labelled cysteine peptide fold change” value (50 µM) was -0.0746.

With “XPO5_Q9HAV4_10_AMDQVNALCEQLVK (UniProt Q9HAV4)” the “probe-labelled cysteine peptide fold change” value (10 µM) was 0.118 and the “probe-labelled cysteine peptide fold change” value (50 µM) was -0.00124.

With “XPO4_Q9C0E2_439_GFFTQHAVQVFNSYIQCHLAAPDGTR (UniProt Q9C0E2)” the “probe-labelled cysteine peptide fold change” value (10 µM) was -0.314 and the “probe-labelled cysteine peptide fold change” value (50 µM) was -0.144.

With “ZDHHC21_Q8IVQ6_106_SHHCSR (UniProt Q8IVQ6)” the “probe-labelled cysteine peptide fold change” value (10 µM) was 0.476 and the “probe-labelled cysteine peptide fold change” value (50 µM) was 0.232.

With “XPO6_Q96QU8_299_MASVNGSSQNCVSGQER (UniProt Q96QU8)” the “probe-labelled cysteine peptide fold change” value (10 µM) was 0.0986 and the “probe-labelled cysteine peptide fold change” value (50 µM) was 0.0125.

For “XRN1_Q8IZH2_1487_LSNGLLVHGPQCHSENEAK (UniProt Q8IZH2)”, the “probe-labelled cysteine peptide fold change” value (10 µM) was -0.00266 and the “probe-labelled cysteine peptide fold change” value (50 µM) was 0.0496.

For “YEATS2_Q9ULM3_1173_SEDASCFSAK (UniProt Q9ULM3)”, the “probe-labelled cysteine peptide fold change” value (10 µM) was 0.194 and the “probe-labelled cysteine peptide fold change” value (50 µM) was 0.162.

For “XPO7_Q9UIA9_1038_QQAMHLCFENLMEGIER (UniProt Q9UIA9)”, the “probe-labelled cysteine peptide fold change” value (10 µM) was 0.0777 and the “probe-labelled cysteine peptide fold change” value (50 µM) was 0.0769.

With “XRN2_Q9H0D6_715_HHPLHDFILELYQTGSTEPVEVPPELCHGIQGK (UniProt Q9H0D6)” the “probe-labelled cysteine peptide fold change” value (10 µM) was -0.0378 and the “probe-labelled cysteine peptide fold change” value (50 µM) was -0.0762.

In the case of “XRCC6_P12956_398_EVAALCR (UniProt P12956)”, the “probe-labelled cysteine peptide fold change” value (10 µM) was 0.104 and the “probe-labelled cysteine peptide fold change” value (50 µM) was 0.219.

For “ZC3HAV1L_Q96H79_99+102_GECQACDQLHFCR (UniProt Q96H79)”, the “probe-labelled cysteine peptide fold change” value (10 µM) was -0.0504 and the “probe-labelled cysteine peptide fold change” value (50 µM) was -0.0965.

For “YARS2_Q9Y2Z4_413_EAPFSEFFLDPGTSVLDTCRK (UniProt Q9Y2Z4)”, the “probe-labelled cysteine peptide fold change” value (10 µM) was -0.171 and the “probe-labelled cysteine peptide fold change” value (50 µM) was 0.00272.

In the case of “YWHAE_P62258_98_LICCDILDVLDK (UniProt P62258)”, the “probe-labelled cysteine peptide fold change” value (10 µM) was 0.0119 and the “probe-labelled cysteine peptide fold change” value (50 µM) was 0.103.

In the case of “ZC3HAV1_Q7Z2W4_174_LHICDHFTR (UniProt Q7Z2W4)”, the “probe-labelled cysteine peptide fold change” value (10 µM) was 0.0051 and the “probe-labelled cysteine peptide fold change” value (50 µM) was 0.0954.

For “ZC3HAV1L_Q96H79_7_AEPTVCSFLTK (UniProt Q96H79)”, the “probe-labelled cysteine peptide fold change” value (10 µM) was 0.0178 and the “probe-labelled cysteine peptide fold change” value (50 µM) was 0.147.

In the case of “ZC3H7A_Q8IWR0_775_QMPLQFDLCNHIASGK (UniProt Q8IWR0)”, the “probe-labelled cysteine peptide fold change” value (10 µM) was -0.0964 and the “probe-labelled cysteine peptide fold change” value (50 µM) was -0.0915.

For “ZC3HAV1_Q7Z2W4_867_FTEGNITYTSPPPQFDSCVDTR (UniProt Q7Z2W4)”, the “probe-labelled cysteine peptide fold change” value (10 µM) was -0.0598 and the “probe-labelled cysteine peptide fold change” value (50 µM) was 0.0873.

With “YIPF4_Q9BSR8_94_CVLMPMPSLGFNR (UniProt Q9BSR8)” the “probe-labelled cysteine peptide fold change” value (10 µM) was 0.032 and the “probe-labelled cysteine peptide fold change” value (50 µM) was -0.177.

For “ZC3H14_Q6PJT7_634_CLFVHPNCK (UniProt Q6PJT7)”, the “probe-labelled cysteine peptide fold change” value (10 µM) was -0.00424 and the “probe-labelled cysteine peptide fold change” value (50 µM) was -0.0967.

In the case of “ZC3HAV1_Q7Z2W4_567_GYCNPGIHLCSVGSYTINFR (UniProt Q7Z2W4)”, the “probe-labelled cysteine peptide fold change” value (10 µM) was 0.189 and the “probe-labelled cysteine peptide fold change” value (50 µM) was 0.076.

With “XPO7_Q9UIA9_767_AIELWYHDPACTTPVLK (UniProt Q9UIA9)” the “probe-labelled cysteine peptide fold change” value (10 µM) was 0.0335 and the “probe-labelled cysteine peptide fold change” value (50 µM) was 0.142.

In the case of “XPNPEP1_Q9NQW7_443_ECFTYVLK (UniProt Q9NQW7)”, the “probe-labelled cysteine peptide fold change” value (10 µM) was 0.00776 and the “probe-labelled cysteine peptide fold change” value (50 µM) was 0.112.

For “XPNPEP1_Q9NQW7_46_NSEYVTEPIQAYIIPSGDAHQSEYIAPCDCRR (UniProt Q9NQW7)”, the “probe-labelled cysteine peptide fold change” value (10 µM) was 0.362 and the “probe-labelled cysteine peptide fold change” value (50 µM) was -0.0759.

In the case of “ZDHHC12_Q96GR4_102_YCLVLQPLR (UniProt Q96GR4)”, the “probe-labelled cysteine peptide fold change” value (10 µM) was -0.0174 and the “probe-labelled cysteine peptide fold change” value (50 µM) was -0.0218.

For “ZC3HC1_Q86WB0_102_WAGKPFELSPLVCAK (UniProt Q86WB0)”, the “probe-labelled cysteine peptide fold change” value (10 µM) was 0.0693 and the “probe-labelled cysteine peptide fold change” value (50 µM) was -0.0601.

With “YWHAG_P61981_112_NCSETQYESK (UniProt P61981)” the “probe-labelled cysteine peptide fold change” value (10 µM) was 0.0918 and the “probe-labelled cysteine peptide fold change” value (50 µM) was -0.0332.

— the supplement of paper PMC12067093, “Discovery and optimisation of a covalent ligand for TRIM25 and its application to targeted protein ubiquitination” (Chemical Science, 2025)
